Record: PubChem BioAssay AID1259285 (Sanger Institute, 2017)
Aim: 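Search of the kinome for kinases worth combining with drugs in colon cancer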 (primary screen). Cells: human HCC56 colorectal cancer cells. Reagent: siRNA pool against human genes. Treatment: DMSO vehicle, or anchor drug BYL719 at 1 µM, cetuximab at 5 µg/ml, or trametinib at 10 nM. Detection: 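Viability as a ratio to non-targeting pool wells, averaged over replicates and turned into a robust z-score; synergy scores with BYL719, cetuximab or trametinib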. Scale: viability robust z-score, no drug: higher = more viable cells, weaker knock-down effect. Hit rule: 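a knock-down counts as essential if its viability z-score without drug is under -3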. Meaning of the calls: active = essential without drug; inactive = no change without drug.
Shown is a random part of 794 reagents tested. 20 of all reagents (2.5%) were called active. 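Calls rest on the drug-free arm alone and ignore synergy scores; viability ratios seem to be capped at 1.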 Not all columns of the deposit are shown. No sequences are given here. Not stated in the record: the amount of reagent, the time to read-out.

target gene | viability robust z-score, no drug | Outcome
PCK1 | 0.458 | inactive
PHKA2 | -0.578 | inactive
DLG1 | 0.458 | inactive
CAMK2B | -0.706 | inactive
STK25 | 0.458 | inactive
CAMKK2 | -0.0838 | inactive
SGK2 | -2.69 | inactive
CREBBP | -2.28 | inactive
HUS1 | 0.458 | inactive
STK24 | 0.458 | inactive

Targets listed so far whose target name begins with S or s (3):
target gene | viability robust z-score, no drug | Outcome
STK25 | 0.458 | inactive
SGK2 | -2.69 | inactive
STK24 | 0.458 | inactive

The list goes on.
target gene | viability robust z-score, no drug | Outcome
PRKCB | -0.621 | inactive
STK31 | 0.458 | inactive
APC | 0.175 | inactive
LRRK1 | 0.458 | inactive
KHK | 0.458 | inactive
PRKCG | 0.339 | inactive
PIK3C3 | 0.458 | inactive
IRAK1 | 0.458 | inactive
CSNK1G1 | 0.458 | inactive
KRAS | -4.68 | active
